The results in this text go back to paper PMC9879980.

Amino acid sequences for entries named in this document (tags omitted). Residues count along the entry.
UniProt P26660, residues 456-713: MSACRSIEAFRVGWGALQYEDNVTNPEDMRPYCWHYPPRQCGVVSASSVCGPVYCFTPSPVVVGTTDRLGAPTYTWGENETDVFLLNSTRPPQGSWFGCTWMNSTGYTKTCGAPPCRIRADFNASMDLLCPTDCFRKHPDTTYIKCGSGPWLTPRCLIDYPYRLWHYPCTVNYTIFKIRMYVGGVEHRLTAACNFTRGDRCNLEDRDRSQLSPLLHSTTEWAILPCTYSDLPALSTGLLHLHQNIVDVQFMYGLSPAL

The target of this assay is HCV isolate J6 E2core+stem (residues 456-713) (Hepatitis C virus isolate J6 (genotype 2a)) (UniProt P26660). The assay is described as follows: SEC; E2core+stem, with or without 2A12 Fab, incubated with hCD81-LEL (1:1.3 molar ratio) overnight at 4 °C; Superdex200 in 20 mM sodium citrate pH 4.5, 100 mM NaCl (low pH); both purified. Background: SEC sorts molecules by how far they enter the pores of the column.

No constants are given. Whether binding was seen depends on the method and setting.

B1: human CD81 large extracellular loop (residues 112-202) (domain or fragment, UniProt P60033 112-202)
chain: GFVNKDQIAKDVKQFYDQALQQAVVDDDANNAKAVVKTFHETLDCCGSSTLTALTTSVLKNNLCPSGSNIISNLFKEDCHQKIDDLFSGKL
Turning to B1, the binding entry is “no binding”.
